Our source for the binding values is US20200308281A1 (KITE PHARMA, published 2020).

Results are given in words; binding and its absence hold for the method and conditions named. Some binding calls cover weakened binding; strength is not graded here.

In the assay the target is T1, peptide immunogen … (murine).
T1 sequence (peptide): ATYPSSDVPSDATLT
The assay can be described thus: ELISA, peptide coated on the plate at 1 ug/ml.

B1: KIP-8 antibody (mAb clone 39; Clone 39-4) (antibody, V domains shown)
VH: QEQLVESGGGLVQPEGSLTLTCTASGFDLGNNWIHWVRHAPGKGLEWIACVSGSSGNIYYATWAKGRFTMSKASSTTVTLRMTSLTAADTATYFCARGWNLWGPGTLVTVSS
VL: AQVLTQTPASVSAAVGGTVTINCQASQSVYSSNLLTWYQKKPGQPPKLLIYEASKLPSGIPSRFSGSGSGTQFTLTISDVQCADAATYYCLGIYDCVLADCQAFGGGTEVVVKG
notes: Rabbit monoclonal antibody; also called clone 39 (KIP-8); Clone 39-4 vh1
For the molecule B1, the binding result was “binds”.
